In doi:10.1101/2021.05.14.443827 one finds binding data, which are given here for 1 substance.

Protein sequences, listed by entry. Tags and fused reporters are not part of them.
UniProt P02941, whole entry: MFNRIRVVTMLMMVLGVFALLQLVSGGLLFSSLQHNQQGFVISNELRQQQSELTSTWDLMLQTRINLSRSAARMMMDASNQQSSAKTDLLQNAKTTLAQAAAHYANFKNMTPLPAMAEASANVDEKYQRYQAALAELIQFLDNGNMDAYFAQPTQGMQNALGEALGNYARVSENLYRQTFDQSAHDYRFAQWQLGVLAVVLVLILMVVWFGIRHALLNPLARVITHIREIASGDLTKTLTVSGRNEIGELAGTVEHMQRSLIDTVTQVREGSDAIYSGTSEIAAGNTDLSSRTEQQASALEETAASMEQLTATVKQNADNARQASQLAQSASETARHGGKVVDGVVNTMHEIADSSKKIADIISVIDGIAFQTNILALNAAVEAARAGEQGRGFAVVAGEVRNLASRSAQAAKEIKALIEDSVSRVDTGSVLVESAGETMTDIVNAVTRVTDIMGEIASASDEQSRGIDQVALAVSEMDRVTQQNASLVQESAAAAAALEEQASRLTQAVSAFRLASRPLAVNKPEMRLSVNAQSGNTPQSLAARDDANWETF

Results are given in words; binding and its absence hold for the method and conditions named. Some binding calls cover weakened binding; strength is not graded here.

This test addresses CheM-T18 (Salmonella enterica serovar Typhimurium) (UniProt P02941). Kind of test: two-hybrid.

In the case of CheM-T18 (from UniProt P02941 1-553), the binding entry is “binds”.
